# What was measured:
# Type in all cases: cell-based
# [1] = tested on: SKBR-3 (human breast cancer cell line); test: cells; details: SK-BR-3, 72 h, read-out: Anticancer activity IC50 (nM) ± SD, SKBR-3
# [2] = tested on: SKBR-3, SKOV-3, PC-3, U-87 cells; test: SRB cytotoxicity assay, values summarised over cancer cell lines; details: Homo sapiens, read-out: Anticancer IC50 in SKBR-3, SKOV-3, PC-3
# [3] = tested on: SKOV-3 (ovarian cancer cell line); test: cells; details: Homo sapiens, SK-OV-3, 72 h, read-out: Anticancer activity IC50 (nM) ± SD, SKOV-3
# [4] = tested on: PC-3 (human prostate cancer cell line); test: cells; details: 72 h, read-out: Anticancer activity IC50 (nM) ± SD, PC-3
# [5] = tested on: U-87MG cells (glioblastoma cell line); test: cells; details: Homo sapiens, 72 h, read-out: Anticancer activity IC50 (nM) ± SD, U-87
smiles,measurement,setting,value
"COc1cc2c(c(OC)c1OC)-c1ccc(OC)c(=O)cc1[C@@H](NC(C)=O)CC2 [Compound 1, colchicine, reference compound]",IC50,[1],1.07 ± 0.05 nM
same,IC50,[2],1.06 to 1.28 nM
same,IC50,[3],1.28 ± 0.11 nM
same,IC50,[4],1.06 ± 0.03 nM
same,IC50,[5],0.94 ± 0.02 nM
